Experimental data taken from patent US20160159919A1.
These are yes or no findings as the source states them, for the method shown. Some results given as binding are weak or reduced against the parent protein; the word gives no strength.

T1: EREG (Epiregulin) expressed on cells (SKE lines derived from SK-HEP-1; DLD-1) (human) (UniProt O14944)
T1 sequence: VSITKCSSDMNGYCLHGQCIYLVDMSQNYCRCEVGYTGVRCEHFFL

T2: soluble human EREG fragment having a mature EGF domain structure (R&D Systems cat. no. 1195-EP/CF) (human) (UniProt O14944)
T2 sequence: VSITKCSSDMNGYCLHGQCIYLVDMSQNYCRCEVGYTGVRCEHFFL

B1: H118-G1d/LB-k (antibody, human IgG1, kappa, V domains shown)
VH: QDQLVQSGAEVKKPGASVKVSCKASGFNIKDTYIQWVRQAPGQGLEWMGRIDPLRGNRKYREKFEGRVTITADTSTNTAYMELSSLRSEDTAVYYCVRSGTLFDFWGQGTLVTVSS
VL: DIQMTQSPSSLSASVGDRVTITCKASQDIHKYIAWYQQKPGQAPRLLIQYTSTLQPGVPSRFSGSGSGTDYTFTISSLQPEDIATYYCLQYDNLRTFGGGTKVEIKR
B2: H120-G1d/LB-k (antibody, human IgG1, kappa, V domains shown)
VH: QDQLVQSGAEVKKPGASVKVSCKASGFNIKDTYIQWVRQAPGQGLEWMGRIDPLRGNTKRREKFEGRVTITADTSTNTAYMELSSLRSEDTAVYYCVRSGTLFDFWGQGTLVTVSS
VL: DIQMTQSPSSLSASVGDRVTITCKASQDIHKYIAWYQQKPGQAPRLLIQYTSTLQPGVPSRFSGSGSGTDYTFTISSLQPEDIATYYCLQYDNLRTFGGGTKVEIKR
B3: mouse hybridoma-derived EP27 (antibody, V domains shown)
VH: EDQLQQSGAELVKPGASVKLSCTASGFNIKDTYIQWVKLRPEQGLEWIGRIDPLNGNTKYVPKFQGKATITADTSSNTAYLQLSSLTSEDTAVYYCVRSGTLFDFWGQGTTLTVSS
VL: DIQMTQSPSSLSASLGGKVTITCKASQDIHKYIAWYQHKPGKGPRLLIQYTSTLQPGIPSRFSGSGSGRDYSFSISNLEPEDIATYYCLQYDNLRTFGGGTKLEIK
B4: HY-G1d/L20-k (antibody, human IgG1, kappa, V domains shown)
VH: QDQLVQSGAEVKKPGASVKVSCKASGFNIKDTYIQWVRQAPGQGLEWMGRIDPLNGNTKYVPKFQGRVTITADTSTNTAYMELSSLRSEDTAVYYCVRSGTLFDFWGQGTLVTVSS
VL: DIQMTQSPSSLSASVGDRVTITCQASQDIHKYIAWYQQKPGQAPRLLIQYTSTLEPGVPSRFSGSGSGTDYTFTISSLQPEDIATYYCLQYDNLRTFGGGTKVEIKR
B5: HY-G1d/L23-k (antibody, human IgG1, kappa, V domains shown)
VH: QDQLVQSGAEVKKPGASVKVSCKASGFNIKDTYIQWVRQAPGQGLEWMGRIDPLNGNTKYVPKFQGRVTITADTSTNTAYMELSSLRSEDTAVYYCVRSGTLFDFWGQGTLVTVSS
VL: DIQMTQSPSSLSASVGDRVTITCKASQDIHKYIAWYQQKPGQAPRLLIQYTSTLQEGVPSRFSGSGSGTDYTFTISSLQPEDIATYYCLQYDNLRTFGGGTKVEIKR

Legend:
[1] = target: Human EREG (Biacore analyte) (human) (UniProt O14944); assay: SPR (Biacore), FIG. 3
[2] = target: Human EREG (Biacore analyte) (human) (UniProt O14944); assay: SPR (Biacore T100, Reference Example 24): antibody captured by Protein A, human EREG as analyte; bar = KD of the antibody / KD of chimeric EP27
[3] = target: Human EREG (Biacore analyte) (human) (UniProt O14944); assay: SPR (Biacore T100, Reference Example 24): antibody captured by Protein A, human EREG as analyte; bar = KD of the antibody / KD of chimeric EP27 (cH-G1/cL-k)
[4] = target: T1, EREG (Epiregulin) expressed on cells (SKE lines derived from SK-HEP-1; DLD-1) (human); assay: flow cytometry of the cell lines (upper row) and immunohistochemistry of xenograft sections with the EP27 antibody as primary antibody (lower row, Reference Example 9); the antibody of the flow cytometry is not named separately in the text
[5] = target: T1, EREG (Epiregulin) expressed on cells (SKE lines derived from SK-HEP-1; DLD-1) (human); assay: immunohistochemical staining of xenograft tissues of SKE cell lines forced to express EREG
[6] = target: T2, soluble human EREG fragment having a mature EGF domain structure (R&D Systems cat. no. 1195-EP/CF) (human); assay: competitive ELISA on coated soluble human EREG fragment

Binder | binding [1] | binding [2] | binding [3] | binding [6] | also measured
B1 | binds | binds | binds | – | –
B2 | binds | binds | binds | – | –
B3 | – | – | – | – | binding [4]: binds; binding [5]: binds
B4 | – | – | – | binds | –
B5 | – | – | – | binds | –
